# This is one part of the list. Further columns of the screen follow, without active or inactive calls. The list favours compounds with an active or inconclusive main result. The note in brackets gives the kind of curve behind each potency; many fits are weak.
# Experiment: IkB Signaling
# Conditions: ABC-DLBCL IkBa-CBG/CBR dual luciferase ratio (green luciferase fused to IkBa over red control in OCI-Ly3 lymphoma cells), 4 h
# From the text: NIH Molecular Libraries Screening Centers Network [MLSCN]
# NIH Chemical Genomics Center [NCGC]
# Nuclear factor kappa-B (NF-kappa-B) plays an important role in normal B cell development and survival. Diffuse large B cell lymphoma (DLBCL) is the most commonly observed type of non-Hodgkin's lymphoma. Gene expression analysis has identified an activated B cell-like subtype of DLBCL (ABC-DLBCL) which expresses known NF-kappa-B target genes. […] However, targets upstream of IKK have been largely unexplored and so nodes upstream of IKK in the NF-kappa-B pathway remain untested due to the lack of chemical probes.
# A cell-sensor assay for I-kappa-B-alpha stabilization was developed with NIH investigator Dr. R. Eric Davis in Dr. Louis M. Staudt's laboratory. The assay uses green (CBG68) and red (CBR) emitting beetle luciferases [Chroma-Glo(TM) developed by Promega Corp.] where the green luciferase is fused to I-kappa-B-alpha and the red luciferase is present in its native state. Both luciferase genes are stably present in the OCI-Ly3 human ABC DLBCL cell line, but their expression is under the control of tetracycline-inducible promoters. Following the addition of doxycycline to induce expression of the luciferases, the green luminescence in control cultures rises only slowly because the CBG fusion partner I-kappa-B-alpha is targeted by IKK activity for rapid degradation. In contrast, green luminescence rises rapidly in the presence of proteasome inhibitors or IKK inhibitors. The rise in red luminescence of CBR is not affected by proteasome or IKK inhibitors, and serves as normalization for cell number and nonspecific effects. Compounds were screened as a concentration-titration series that ranged from 57 uM to 0.7 nM.
# NCGC Assay Protocol Summary:
# Cells were seeded in 1536-well plates at 5000 cells/3ul in IMDM medium containing 0.5% FBS, w/o phenol red, L-glutamine, 25 mM HEPES, 3 mg/ml sodium bicarbonate. After centrifugation for 1 min. at 1000 rpm, 23 nl of compounds or DMSO were delivered to each well using a pin tool. Then 1ul 80ng/ml doxycycline was dispensed into white solid 1536-well plates and the plates were incubated at 37C/5% C02 in a cell incubator for 4 hrs. Then 4 ul Chroma-Glo luminescent substrate mix (Promega) was added to each well. The plate was incubated at R.T. for 10-15 min. The plates were measured on a ViewLux plate reader for green luminescence (540/20 nm filter) and red luminescence (618/8 nm filter). The green and red luminescent signals were corrected for red and green luminescence filter overlap using previously determined filter calibration constants (determined using the procedure outlined in the Promega Technical Manual). The %Activity was determined from the ratio of corrected green/red luminescent values. Green luminescent and ratio %Activity was determined by normalizing to the difference in signal between basal cells (0% Activity) and cells incubated with 10 uM of the proteasome inhibitor MG-132 (100% Activity). Red luminescent %Activity was normalized to the difference between red luminesence in basal cells (0%Activity) and zero luminescence (-100% Activity).
# Concentration-response curves were fitted to the signals arising from the green luminescence (I-kappa-B-alpha-luciferase fusion; IkB-luc) and the red luminescence (unfused luciferase; luc) as well as the calculated ratio. The concentration-effect curves were then classified based on curve quality (r2), response magnitude and degree of measured activity. Compounds were then categorized based on their concentration-response curves for all three datasets (Ikb-luc, luc and ratio).
# Keywords: IKK, I-kappa-B, IkB, IkBa, cytotoxicity, luminescence, MLSMR, MLSCN, NIH Roadmap, qHTS, NCGC
# [1] = measured here: control luc red channel unless noted
# [2] = measured here: IkB-luc green channel
# [3] = measured here: control luc red channel
smiles,measurement,setting,value
COc1cccc(N2CCN(C(=O)CCS(=O)(=O)c3ccc4c(c3)CC(=O)N4C)CC2)c1,AC50,[1],"0.1 µM [rising, full curve]"
O=C(Cn1c(=O)oc2cc(S(=O)(=O)N3CCCC3)ccc21)NCc1ccc(Cl)cc1,AC50,[1],"25.1 µM [falling, single point]"
Cc1ncc(CO)c2c1Oc1nc(-c3ccccc3)nc(SCC(=O)N3CCCCC3)c1C2,AC50,[1],"15.8 µM [falling, partial curve]"
CCN(CC)C(=O)Cn1c(=O)n(Cc2ccc(C(=O)NCc3ccc(C)cc3)cc2)c(=O)c2ccccc21,AC50,[1],"10 µM [falling, partial curve]"
CS(=O)(=O)N1CCc2cc(C(=O)Nc3ccc(Cl)c(C(F)(F)F)c3)ccc21,AC50,[1],"20 µM [falling, partial curve]"
COc1ccc(NC(=O)Cn2c(=O)n(-c3cccc(C)c3)c(=O)c3c2c2cc(C)ccc2n3C)cc1Cl,AC50,[1],"12.6 µM [falling, partial curve]"
O=C(C1CCC(CNS(=O)(=O)c2ccc(Br)s2)CC1)N1CCN(c2ccccc2Cl)CC1 (stereo not drawn),AC50,[1],"12.6 µM [falling, partial curve, poor fit]"
CCOc1cc2sc(N3CCC(C(=O)Nc4ccccc4C(=O)OC)CC3)nc2cc1Br,AC50,[1],"0.501 µM [falling, full curve]"
COc1cc2c(cc1OC)C(COc1ccc3c(C)cc(=O)oc3c1)N(C(=O)C(C)C)CC2 (stereo not drawn),AC50,[1],"20 µM [falling, single point]"
O=C(Nc1c(C(=O)Nc2ccc(F)cc2)oc2ccccc12)c1cc2ccccc2o1,AC50,[1],"12.6 µM [falling, partial curve]"
CC(=O)Nc1ccc(C(=O)CCl)cc1,AC50,[1],"12.6 µM [falling, partial curve]"
c1ccc(-c2noc(-c3ccc4c(c3)OCO4)n2)nc1,AC50,[1],"1.26 µM [falling, full curve]"
Cc1cccc(-n2ccnc2SCC(=O)Nc2ccc(F)cc2F)c1C,AC50,[1],"20 µM [falling, single point]"
Cc1cc(Oc2c(C(F)(F)F)oc3c(CN4CCC(C)CC4)c(O)ccc3c2=O)cc(C)c1Cl,AC50,[1],"0.794 µM [falling, full curve, poor fit]"
Cc1ccc(C)c(CNC(=O)c2ccc3c(c2)nc2n3CCCCC2)c1,AC50,[1],"15.8 µM [falling, partial curve]"
Cc1ccc(C)c(CN2CCC(CNC(=O)Nc3ccc(Br)cc3F)CC2)c1,AC50,[1],"25.1 µM [falling, partial curve]"
Cc1cc(C(=O)CSc2nnc(-c3ccco3)o2)c(C)n1Cc1ccco1,AC50,[1],"12.6 µM [falling, partial curve]"
O=C(O)CCC(=O)OC1CC2CCC1C2 (stereo not drawn),AC50,[2],"1.26 µM [rising, partial curve]"
same,AC50,[3],"0.1 µM [rising, full curve, poor fit]"
O=C(CC(SCCO)c1ccc2c(c1)OCO2)c1ccco1 (stereo not drawn),AC50,[1],"39.8 µM [falling, single point]"
CCOc1ccc(NC(=O)Cn2cc(C(=O)c3ccc(CC)cc3)c(=O)c3cc(OC)c(OC)cc32)cc1,AC50,[1],"31.6 µM [falling, single point]"
COc1ccc2cc3cc(C(=O)N4CCN(c5cccc(Cl)c5)CC4)sc3nc2c1,AC50,[1],"12.6 µM [falling, partial curve, poor fit]"
CC(C)CCNC(=O)CSc1nc2ccccc2nc1Cc1ccccc1,AC50,[1],"39.8 µM [falling, single point]"
CCc1cccc(-n2c(C)nc3c(cnn3-c3ccc(C)c(C)c3)c2=O)c1,AC50,[1],"15.8 µM [falling, partial curve]"
Cc1nnc(Sc2cc(C(=O)NCc3ccco3)c3ccccc3n2)s1,AC50,[1],"12.6 µM [falling, partial curve]"
COc1cccc(NC(=O)CSc2nc3cc(OC)c(OC)cc3c3nc(-c4ccccc4)nn23)c1,AC50,[1],"0.0631 µM [falling, full curve, poor fit]"
NC1=NC2(CCC(c3ccccc3)CC2)n2c(nc3ccccc32)N1 (stereo not drawn),AC50,[1],"15.8 µM [falling, partial curve]"
C[C@H](NC(=O)OC(C)(C)C)c1nnc(SCc2c(F)cccc2Cl)o1,AC50,[1],"0.0398 µM [rising, full curve, poor fit]"
CCc1ccc(NC(=O)Cn2nc3c4ccccc4n(Cc4ccccc4)cc-3c2=O)cc1,AC50,[1],"39.8 µM [falling, single point]"
O=C(c1ccc(CSc2nc3ccncc3n2Cc2ccc(F)cc2)cc1)N1CCCCCC1,AC50,[1],"15.8 µM [falling, partial curve]"
COCCCNC(=O)c1cc2c(=O)oc3ccc(C)cc3c2s1,AC50,[1],"2 µM [rising, full curve, poor fit]"
O=C1CC(c2cccc(O)c2)c2c(nc(SCc3ccccc3F)[nH]c2=O)N1 (stereo not drawn),AC50,[1],"12.6 µM [falling, partial curve]"
CCOc1ccc(C(=O)N(Cc2sccc2C)C2CCS(=O)(=O)C2)cc1 (stereo not drawn),AC50,[1],"0.00501 µM [rising, full curve]"
Cc1ccccc1CSc1nc2n(n1)C(c1cccs1)C1=C(CCCC1=O)N2 (stereo not drawn),AC50,[1],"12.6 µM [falling, partial curve]"
O=C(CN1CCC(C(=O)c2ccc(Cl)cc2)CC1)Nc1ccc2c(c1)OCCO2,AC50,[1],"15.8 µM [falling, partial curve]"
COc1ccc(C(=O)N=c2nc3ccccn3s2)cc1,AC50,[1],"1.58 µM [falling, full curve]"
O=C(CSc1ncc(-c2ccccc2)n1-c1ccccc1)NCc1ccco1,AC50,[1],"12.6 µM [falling, partial curve]"
Cn1c(C(=O)NCc2ccccc2F)cc2oc3ccccc3c21,AC50,[1],"12.6 µM [falling, partial curve]"
O=C(c1ccco1)n1nc(-c2ccccc2)nc1NCc1ccc(F)cc1,AC50,[1],"2.51 µM [rising, partial curve]"
CCN1CCN(c2oc(-c3ccc(COc4ccc(C)cc4)o3)nc2C#N)CC1,AC50,[1],"25.1 µM [falling, single point]"
COc1ccc2oc(-c3cccc(NC(=O)c4ccc(C#N)cc4F)c3)nc2c1,AC50,[1],"2 µM [rising, partial curve]"
CCCCNC(=O)c1ccc2c(c1)NC(=O)C(CS(=O)(=O)Cc1cccc(C)c1)N2 (stereo not drawn),AC50,[1],"0.00794 µM [rising, full curve, poor fit]"
CCOC(=O)Cn1c(=O)oc2cc(S(=O)(=O)NC3CCCc4ccccc43)ccc21 (stereo not drawn),AC50,[2],"39.8 µM [falling, single point]"
same,AC50,[3],"15.8 µM [falling, partial curve]"
Cc1ccc(S(=O)(=O)N2CCN(Cc3noc(CCC(=O)N4CCCCC4)n3)CC2)c(C)c1,AC50,[1],"25.1 µM [falling, single point]"
O=C(c1ccc2c(=O)n(-c3ccccc3)c(=O)[nH]c2c1)N1CCCCC1,AC50,[1],"12.6 µM [falling, partial curve]"
CC(C)Cn1c(=O)c2sccc2n2c(CCCC(=O)NCCc3ccccc3)nnc12,AC50,[1],"25.1 µM [falling, single point]"
Cc1ccc(S(=O)(=O)c2cn(CC(=O)Nc3ccc4c(c3)OCO4)c3ccccc3c2=O)cc1,AC50,[1],"39.8 µM [falling, single point]"
Cc1cccc(N2CCN(C(=O)Cc3c(C(=O)O)[nH]c4ccc(Cl)cc34)CC2)c1C,AC50,[1],"15.8 µM [falling, partial curve]"
Cc1ccc(Nc2nc3c(S(=O)(=O)c4ccccc4)nnn3c3ccsc23)c(C)c1,AC50,[1],"5.01 µM [rising, full curve, poor fit]"
COc1cccc(NC(=O)CSc2nc(=O)n(Cc3ccco3)c3c2CCC3)c1,AC50,[1],"10 µM [falling, partial curve]"
CCN(CC)CCCNC(=O)CSc1c2c(nc3cc(Cl)ccc13)CCCC2,AC50,[1],"25.1 µM [falling, single point]"
C=CCC(CC=C)(CNC(=O)C(=O)Nc1cc(C)ccc1OC)c1ccc(OC)c(OC)c1,AC50,[1],"10 µM [falling, partial curve]"
O=C(Cn1cc(S(=O)(=O)N2CCCC2)c(S(=O)(=O)N2CCCC2)c1)Nc1cccc(F)c1,AC50,[1],"0.0398 µM [falling, full curve, poor fit]"
COc1ccccc1CNC(=O)CN1C(=O)COc2ccc(S(=O)(=O)N3CCC(C)CC3)cc21,AC50,[1],"31.6 µM [falling, single point]"
COc1ccc(NC(=O)/C(C#N)=C/c2cc(C)n(-c3ccc(F)cc3)c2C)cc1,AC50,[1],"3.16 µM [rising, full curve, poor fit]"
CCOC(=O)c1cccc(NC(=O)C2CCCN(S(=O)(=O)c3ccc4c(c3)oc(=O)n4C)C2)c1 (stereo not drawn),AC50,[1],"15.8 µM [falling, partial curve]"
CCc1ccc(NC(=O)C(C)n2nnc3sc(-c4ccccc4)cc3c2=O)cc1 (stereo not drawn),AC50,[1],"7.94 µM [falling, partial curve]"
CC(C)C(=O)N(Cc1ccccc1)S(=O)(=O)c1ccc2c(c1)oc(=O)n2C,AC50,[1],"12.6 µM [falling, partial curve]"
Cc1nc2nncn2c(NCc2ccc(Cl)cc2)c1C,AC50,[1],"15.8 µM [falling, partial curve]"
Cc1ccc(-c2cn3nc(C)c(C)nc3n2)cc1,AC50,[1],"3.98 µM [falling, full curve, poor fit]"
Cc1ccc(-n2c(=O)c3c4c(sc3n(Cc3cccc(Cl)c3)c2=O)CCC4)cc1C,AC50,[1],"10 µM [falling, partial curve]"
COC(=O)c1c(NC(=O)CN2CCN(Cc3ccc4c(c3)OCO4)CC2)sc(C)c1C,AC50,[1],"7.94 µM [falling, partial curve]"

# A different layout for some results above:
smiles	measurement	setting	value
CS(=O)(=O)N1CCc2cc(C(=O)Nc3ccc(Cl)c(C(F)(F)F)c3)ccc21	AC50	[1]	20 µM [falling, partial curve]
Cc1ccc(-n2c(=O)c3c4c(sc3n(Cc3cccc(Cl)c3)c2=O)CCC4)cc1C	AC50	[1]	10 µM [falling, partial curve]

# Two entries from above in a different format.
smiles	measurement	setting	value
O=C(Cn1c(=O)oc2cc(S(=O)(=O)N3CCCC3)ccc21)NCc1ccc(Cl)cc1	AC50	[1]	25.1 µM [falling, single point]
Cc1ncc(CO)c2c1Oc1nc(-c3ccccc3)nc(SCC(=O)N3CCCCC3)c1C2	AC50	[1]	15.8 µM [falling, partial curve]
